These are yes or no findings as the source states them, for the method shown. In cells and extracts the contact can be indirect. These calls come from enrichment with a bait or labelling near it, and not all partners need be listed. Sequences can lack the tags named with a protein.
T1: FLAG-HRV-tagged RBM22 (human) (UniProt Q9NW64)
T1 sequence: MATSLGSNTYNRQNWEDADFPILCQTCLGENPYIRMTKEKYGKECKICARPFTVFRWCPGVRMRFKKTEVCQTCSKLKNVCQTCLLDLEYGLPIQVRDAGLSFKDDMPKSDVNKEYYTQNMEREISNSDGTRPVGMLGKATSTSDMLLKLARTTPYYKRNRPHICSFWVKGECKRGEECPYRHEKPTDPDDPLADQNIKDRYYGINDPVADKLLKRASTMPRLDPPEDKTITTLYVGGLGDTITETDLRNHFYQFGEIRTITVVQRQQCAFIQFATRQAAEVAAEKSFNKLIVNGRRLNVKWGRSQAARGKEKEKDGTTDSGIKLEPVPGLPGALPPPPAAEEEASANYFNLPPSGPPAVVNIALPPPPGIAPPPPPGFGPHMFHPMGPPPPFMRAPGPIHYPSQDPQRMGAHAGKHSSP

Sequences of proteins named here, by UniProt entry; tags and fusion partners are left off.
UniProt P50750: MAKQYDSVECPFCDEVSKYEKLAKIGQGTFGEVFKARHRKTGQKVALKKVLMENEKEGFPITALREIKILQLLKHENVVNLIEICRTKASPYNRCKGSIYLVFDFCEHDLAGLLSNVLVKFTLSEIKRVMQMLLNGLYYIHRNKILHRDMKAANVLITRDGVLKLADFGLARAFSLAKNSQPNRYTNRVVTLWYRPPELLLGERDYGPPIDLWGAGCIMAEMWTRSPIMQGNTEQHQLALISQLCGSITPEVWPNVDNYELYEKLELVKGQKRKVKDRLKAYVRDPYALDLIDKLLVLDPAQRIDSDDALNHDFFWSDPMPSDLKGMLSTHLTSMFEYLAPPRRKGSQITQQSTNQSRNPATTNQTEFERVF
UniProt O94992: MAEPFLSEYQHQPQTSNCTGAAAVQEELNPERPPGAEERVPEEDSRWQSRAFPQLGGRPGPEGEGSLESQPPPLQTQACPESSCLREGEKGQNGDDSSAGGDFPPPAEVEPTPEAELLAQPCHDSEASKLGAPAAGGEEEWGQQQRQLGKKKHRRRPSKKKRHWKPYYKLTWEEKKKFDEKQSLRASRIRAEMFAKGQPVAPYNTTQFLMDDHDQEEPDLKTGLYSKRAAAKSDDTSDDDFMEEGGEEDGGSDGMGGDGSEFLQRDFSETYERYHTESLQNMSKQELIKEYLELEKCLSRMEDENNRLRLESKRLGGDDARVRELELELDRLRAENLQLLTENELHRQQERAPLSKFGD
UniProt Q13263: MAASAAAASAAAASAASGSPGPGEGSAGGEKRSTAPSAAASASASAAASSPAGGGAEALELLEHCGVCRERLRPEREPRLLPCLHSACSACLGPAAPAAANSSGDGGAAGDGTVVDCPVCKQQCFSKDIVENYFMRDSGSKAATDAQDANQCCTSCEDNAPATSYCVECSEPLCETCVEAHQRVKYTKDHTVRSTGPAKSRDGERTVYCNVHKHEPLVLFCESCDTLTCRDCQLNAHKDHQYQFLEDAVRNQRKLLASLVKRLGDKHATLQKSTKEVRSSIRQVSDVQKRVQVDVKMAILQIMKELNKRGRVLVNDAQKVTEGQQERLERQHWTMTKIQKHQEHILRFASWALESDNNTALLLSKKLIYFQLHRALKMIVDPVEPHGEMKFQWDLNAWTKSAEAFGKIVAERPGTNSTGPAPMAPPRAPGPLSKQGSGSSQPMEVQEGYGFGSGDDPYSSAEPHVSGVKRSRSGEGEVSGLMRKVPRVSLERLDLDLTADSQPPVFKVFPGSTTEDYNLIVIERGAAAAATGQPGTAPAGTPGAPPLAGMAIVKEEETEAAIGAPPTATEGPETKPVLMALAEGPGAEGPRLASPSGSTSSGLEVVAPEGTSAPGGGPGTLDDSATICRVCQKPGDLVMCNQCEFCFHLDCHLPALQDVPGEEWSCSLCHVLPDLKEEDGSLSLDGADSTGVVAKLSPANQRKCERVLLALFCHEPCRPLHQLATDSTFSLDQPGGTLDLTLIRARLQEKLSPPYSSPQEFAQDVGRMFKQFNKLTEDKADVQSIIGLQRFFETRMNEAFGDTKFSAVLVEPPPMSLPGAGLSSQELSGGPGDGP

B1: AFF4 (protein, UniProt Q9UHB7 1-1163)
chain: MNREDRNVLRMKERERRNQEIQQGEDAFPPSSPLFAEPYKVTSKEDKLSSRIQSMLGNYDEMKDFIGDRSIPKLVAIPKPTVPPSADEKSNPNFFEQRHGGSHQSSKWTPVGPAPSTSQSQKRSSGLQSGHSSQRTSAGSSSGTNSSGQRHDRESYNNSGSSSRKKGQHGSEHSKSRSSSPGKPQAVSSLNSSHSRSHGNDHHSKEHQRSKSPRDPDANWDSPSRVPFSSGQHSTQSFPPSLMSKSNSMLQKPTAYVRPMDGQESMEPKLSSEHYSSQSHGNSMTELKPSSKAHLTKLKIPSQPLDASASGDVSCVDEILKEMTHSWPPPLTAIHTPCKTEPSKFPFPTKESQQSNFGTGEQKRYNPSKTSNGHQSKSMLKDDLKLSSSEDSDGEQDCDKTMPRSTPGSNSEPSHHNSEGADNSRDDSSSHSGSESSSGSDSESESSSSDSEANEPSQSASPEPEPPPTNKWQLDNWLNKVNPHKVSPASSVDSNIPSSQGYKKEGREQGTGNSYTDTSGPKETSSATPGRDSKTIQKGSESGRGRQKSPAQSDSTTQRRTVGKKQPKKAEKAAAEEPRGGLKIESETPVDLASSMPSSRHKAATKGSRKPNIKKESKSSPRPTAEKKKYKSTSKSSQKSREIIETDTSSSDSDESESLPPSSQTPKYPESNRTPVKPSSVEEEDSFFRQRMFSPMEEKELLSPLSEPDDRYPLIVKIDLNLLTRIPGKPYKETEPPKGEKKNVPEKHTREAQKQASEKVSNKGKRKHKNEDDNRASESKKPKTEDKNSAGHKPSSNRESSKQSAAKEKDLLPSPAGPVPSKDPKTEHGSRKRTISQSSSLKSSSNSNKETSGSSKNSSSTSKQKKTEGKTSSSSKEVKEKAPSSSSNCPPSAPTLDSSKPRRTKLVFDDRNYSADHYLQEAKKLKHNADALSDRFEKAVYYLDAVVSFIECGNALEKNAQESKSPFPMYSETVDLIKYTMKLKNYLAPDATAADKRLTVLCLRCESLLYLRLFKLKKENALKYSKTLTEHLKNSYNNSQAPSPGLGSKAVGMPSPVSPKLSPGNSGNYSSGASSASASGSSVTIPQKIHQMAASYVQVTSNFLYATEIWDQAEQLSKEQKEFFAELDKVMGPLIFNASIMTDLVRYTRQGLHWLRQDAKLIS
B2: LARP7 (protein, UniProt Q4G0J3 1-582)
chain: METESGNQEKVMEEESTEKKKEVEKKKRSRVKQVLADIAKQVDFWFGDANLHKDRFLREQIEKSRDGYVDISLLVSFNKMKKLTTDGKLIARALRSSAVVELDLEGTRIRRKKPLGERPKDEDERTVYVELLPKNVNHSWIERVFGKCGNVVYISIPHYKSTGDPKGFAFVEFETKEQAAKAIEFLNNPPEEAPRKPGIFPKTVKNKPIPALRVVEEKKKKKKKKGRMKKEDNIQAKEENMDTSNTSISKMKRSRPTSEGSDIESTEPQKQCSKKKKKRDRVEASSLPEVRTGKRKRSSSEDAESLAPRSKVKKIIQKDIIKEASEASKENRDIEISTEEEKDTGDLKDSSLLKTKRKHKKKHKERHKMGEEVIPLRVLSKSEWMDLKKEYLALQKASMASLKKTISQIKSESEMETDSGVPQNTGMKNEKTANREECRTQEKVNATGPQFVSGVIVKIISTEPLPGRKQVRDTLAAISEVLYVDLLEGDTECHARFKTPEDAQAVINAYTEINKKHCWKLEILSGDHEQRYWQKILVDRQAKLNQPREKKRGTEKLITKAEKIRLAKTQQASKHIRFSEYD

Target: T1, FLAG-HRV-tagged RBM22 (human)
Test: affinity purification with mass spectrometry; FLAG immunoprecipitation (ANTI-FLAG M2 Affinity Gel, overnight, 4°C) from benzonase-treated lysate of HepG2 cells induced with Dox to express FLAG-RBM22; eluted with HRV 3C protease; label-free quantitative mass spectrometry against cells without Dox

binding | Molecule
binds | CDK9 (from UniProt P50750 1-372) (enzyme)
binds | HEXIM1 (from UniProt O94992 1-359)
binds | TRIM28 (from UniProt Q13263 1-835)
binds | B1
binds | B2

Source: paper PMC11027413
